Some entries share one result that the patent states for a list of compounds.
Experiments:
[1] = molecular target: T1, CARM1 (Homo sapiens, UniProt Q86X55); test: PMT filter-paper methylation assay, CARM1; format: biochemical; conditions: statement in words
T1 construct: CARM1 (19-608)
T1 sequence (Q86X55 19-608): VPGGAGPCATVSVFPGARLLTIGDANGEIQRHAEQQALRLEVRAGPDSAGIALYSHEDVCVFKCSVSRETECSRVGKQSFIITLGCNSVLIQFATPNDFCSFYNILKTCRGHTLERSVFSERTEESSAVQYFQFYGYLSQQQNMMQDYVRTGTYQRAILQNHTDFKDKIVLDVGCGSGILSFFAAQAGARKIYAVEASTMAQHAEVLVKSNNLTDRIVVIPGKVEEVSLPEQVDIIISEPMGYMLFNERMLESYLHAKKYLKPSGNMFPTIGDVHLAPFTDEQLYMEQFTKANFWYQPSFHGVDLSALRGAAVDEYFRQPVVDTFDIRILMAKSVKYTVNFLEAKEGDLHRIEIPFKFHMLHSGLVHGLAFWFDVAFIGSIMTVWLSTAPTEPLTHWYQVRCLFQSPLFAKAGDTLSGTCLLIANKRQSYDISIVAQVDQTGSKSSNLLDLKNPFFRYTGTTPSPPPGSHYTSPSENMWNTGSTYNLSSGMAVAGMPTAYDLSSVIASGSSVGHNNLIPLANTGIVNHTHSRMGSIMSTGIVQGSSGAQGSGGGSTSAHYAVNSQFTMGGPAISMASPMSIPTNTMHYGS

[2] = molecular target: T2, CARM1 in breast cancer cell lines MCF-7 and MDA-MB-231 (Homo sapiens, UniProt Q86X55); test: CARM1 inhibition in breast cancer cell lines, western blot of BAF-155 and PABP-1 biomarkers; format: cell-based; conditions: cells treated two days; for EC50 (BAF-155): BAF-155 biomarker
T2 construct: endogenous in cells; host or cells: MCF-7, MDA-MB-231
T2 sequence (Q86X55 1-608): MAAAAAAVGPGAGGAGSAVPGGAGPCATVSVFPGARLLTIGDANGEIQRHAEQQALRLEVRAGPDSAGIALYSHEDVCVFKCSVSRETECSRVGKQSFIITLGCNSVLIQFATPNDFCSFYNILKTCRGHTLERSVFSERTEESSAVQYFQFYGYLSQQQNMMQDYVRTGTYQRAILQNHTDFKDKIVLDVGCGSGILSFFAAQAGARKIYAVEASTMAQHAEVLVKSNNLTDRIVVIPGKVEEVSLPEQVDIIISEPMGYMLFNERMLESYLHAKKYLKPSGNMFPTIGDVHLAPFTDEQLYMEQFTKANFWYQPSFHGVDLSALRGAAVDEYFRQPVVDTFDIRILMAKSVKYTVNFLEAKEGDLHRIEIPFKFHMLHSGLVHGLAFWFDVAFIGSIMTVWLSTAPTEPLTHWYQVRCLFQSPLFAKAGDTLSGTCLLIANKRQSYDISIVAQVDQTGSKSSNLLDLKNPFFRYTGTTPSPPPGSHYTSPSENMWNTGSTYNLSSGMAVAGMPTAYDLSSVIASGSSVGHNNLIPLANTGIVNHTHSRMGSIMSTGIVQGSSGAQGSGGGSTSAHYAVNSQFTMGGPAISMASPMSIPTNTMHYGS

Row | Structure (SMILES) | inhibitory activity to CARM1 [1] | EC50 ([2]; BAF155 and PABP1 biomarkers (biomarker not specified for these values)) | EC50 (BAF-155) [2]
1 | CC(C)(C)c1ccc(NC(=O)NCCC[C@H](CNCc2ccccc2)C[C@H]2O[C@@H](n3cnc4c(N)ncnc43)C(O)C2O)cc1 (stereo partly shown) [Example 104] | remarkable inhibitory activity | less than 3 μM | –
2 | Nc1ncnc2c1ncn2C1OC(CC(N)CCCNC(=O)Nc2ccccc2)C(O)C1O (stereo not shown) [Compound 26] | – | – | less than 10 μM
3 | CC(C)(C)c1ccc(NC(=O)NCCCC(N)CC2OC(n3cnc4c(N)ncnc43)C(O)C2O)cc1 (stereo not shown) [Compound 27] | – | – | less than 10 μM

Reference: patent US20180305391A1, “COFACTOR ANALOGS AS […] INHIBITORS FOR TREATING CANCER” (MEMORIAL SLOAN-KETTERING CANCER CENTER, priority 2015, published 2018)
